{"source": "PubChem BioAssay AID330", "about": "(DTP/NCI, 2004)", "test_system": "P388 leukemia ip, CD2F1 mice, survival T/C", "assay": "NCI In Vivo Anticancer Drug Screen. Data for tumor model P388 Leukemia (intraperitoneal) in CD2F1 (CDF1) mice", "conditions": "T/C endpoint: median survival time, higher T/C = longer survival", "key": {"[1]": {"conditions": "dose: 240.0 mg/kg/injection, schedule: Q01DX005 (ip), vehicle: Klucel (hydroxypropylcellulose) (HPC)"}, "[2]": {"conditions": "dose: 200.0 mg/kg/injection, schedule: Q04DX003 (ip), vehicle: saline with Tween-80"}, "[3]": {"conditions": "dose: 50.0 mg/kg/injection, schedule: Q01DX005 (ip), vehicle: saline with Tween-80"}, "[4]": {"conditions": "dose: 240.0 mg/kg/injection, schedule: Q01DX005 (ip), vehicle: saline"}, "[5]": {"conditions": "dose: 125.0 mg/kg/injection, schedule: Q01DX001 (ip), vehicle: water"}}, "note": "The list shows only some results of the screen, not a fair sample: it gathers tests that were run many times, whatever their T/C, doses with no T/C, and many T/C values between a quarter and a half above the control. Further doses and runs are listed elsewhere. T/C gives the treated animals as a percentage of the vehicle group. Some entries give survivors of the animals treated and no T/C: the source holds a T/C of zero for them, seemingly a mark for toxic or unscored doses. Some survivor counts are full or nearly so, which does not show that the dose was tolerated: the source hardly ever lists a survival T/C far under the control, and the zero likely stands for such cases as well. Survivors were counted at the toxicity check, usually on the fifth day, unless a day is given; later deaths do not show. Schedules are NCI's codes, read here as Q, the interval in days (D) or hours (H), X, the number of doses. Some entries were tested several times; their values stand side by side, smallest first. Brackets with × stand for listed records that agree. Where survival is the endpoint, this PubChem deposit counts one and a half times the control or more as active, and values a quarter to a half above the control carry no call in these data; other NCI protocols may use other cut-offs. Some T/C values are followed by the survivors on the day toxicity was checked, most often the fifth; without a count, all were alive then."}
{"smiles": "O=C1C2=C(Nc3ccccc3N2)OC1c1ccc(Cl)cc1", "note": "(centres undefined)", "values": [{"measurement": "survivor count", "setting": "dose: 60.0 mg/kg/injection, schedule: Q01DX005 (ip), vehicle: Klucel (hydroxypropylcellulose) (HPC)", "result": "6 of 6"}, {"measurement": "survivor count", "setting": "dose: 120.0 mg/kg/injection, schedule: Q01DX005 (ip), vehicle: Klucel (hydroxypropylcellulose) (HPC)", "result": "5 of 6"}, {"measurement": "survivor count", "setting": "[1]", "result": "5 of 6"}]}
{"smiles": "CN([NH-])C(=S)[S-].CN([NH-])C(=S)[S-].[Ni]", "values": [{"measurement": "survivor count", "setting": "dose: 100.0 mg/kg/injection, schedule: Q04DX003 (ip), vehicle: Klucel (hydroxypropylcellulose) (HPC)", "result": "3 of 6"}, {"measurement": "survivor count", "setting": "[2]", "result": "5 of 6"}]}
{"smiles": "CCC[CH2][Sn]1([CH2]CCC)[O]C(=O)C[S]1", "values": [{"measurement": "T/C", "setting": "dose: 3.0 mg/kg/injection, schedule: Q01DX009 (ip), vehicle: saline with Tween-80", "result": "125 % of control"}, {"measurement": "T/C", "setting": "dose: 3.0 mg/kg/injection, schedule: Q01DX009 (ip), vehicle: saline", "result": "141 % of control"}, {"measurement": "T/C", "setting": "dose: 3.0 mg/kg/injection, schedule: Q04DX003 (ip), vehicle: saline with Tween-80", "result": "145 % of control"}, {"measurement": "T/C", "setting": "dose: 4.5 mg/kg/injection, schedule: Q01DX009 (ip), vehicle: saline with Tween-80", "result": "145 % of control [5 of 6 alive]"}, {"measurement": "survivor count", "setting": "dose: 6.25 mg/kg/injection, schedule: Q04DX003 (ip), vehicle: saline with Tween-80", "result": "4 of 6"}, {"measurement": "survivor count", "setting": "dose: 12.5 mg/kg/injection, schedule: Q04DX003 (ip), vehicle: saline with Tween-80", "result": "0 of 6"}, {"measurement": "survivor count", "setting": "dose: 25.0 mg/kg/injection, schedule: Q04DX003 (ip), vehicle: saline with Tween-80", "result": "0 of 6"}, {"measurement": "survivor count", "setting": "dose: 100.0 mg/kg/injection, schedule: Q04DX003 (ip), vehicle: saline with Tween-80", "result": "0 of 6"}, {"measurement": "survivor count", "setting": "[2]", "result": "0 of 6"}, {"measurement": "survivor count", "setting": "dose: 400.0 mg/kg/injection, schedule: Q04DX003 (ip), vehicle: saline with Tween-80", "result": "0 of 6"}]}
{"smiles": "O=[N+]([O-])c1ccc(C2=C[P+](c3ccccc3)(c3ccccc3)C=C(c3ccccc3)O2)cc1", "values": [{"measurement": "T/C", "setting": "dose: 6.0 mg/kg/injection, schedule: Q01DX005 (ip), vehicle: saline with Tween-80", "result": "125 % of control"}, {"measurement": "T/C", "setting": "dose: 6.0 mg/kg/injection, schedule: Q01DX005 (ip), vehicle: saline", "result": "132 % of control [4 of 5 alive]"}, {"measurement": "survivor count", "setting": "dose: 12.0 mg/kg/injection, schedule: Q01DX005 (ip), vehicle: saline with Tween-80", "result": "2 of 5"}, {"measurement": "survivor count", "setting": "dose: 12.5 mg/kg/injection, schedule: Q01DX005 (ip), vehicle: saline with Tween-80", "result": "5 of 5"}, {"measurement": "survivor count", "setting": "dose: 25.0 mg/kg/injection, schedule: Q01DX005 (ip), vehicle: saline with Tween-80", "result": "2 of 5"}, {"measurement": "survivor count", "setting": "[3]", "result": "0 of 5"}]}
{"smiles": "CCCN1COC(OCC)C(C)(C)C1", "note": "(centres undefined)", "values": [{"measurement": "T/C", "setting": "dose: 100.0 mg/kg/injection, schedule: Q01DX009 (ip), vehicle: saline with Tween-80", "result": "133 and 145 % of control"}, {"measurement": "survivor count", "setting": "dose: 200.0 mg/kg/injection, schedule: Q01DX009 (ip), vehicle: saline with Tween-80", "result": "0 of 6"}]}
{"smiles": "CCN(CC)CCNc1ccccc1", "values": [{"measurement": "survivor count", "setting": "[4]", "result": "0 of 6"}]}
{"smiles": "Cc1ccc(S(=O)(=O)OI(O)c2ccccc2)cc1", "values": [{"measurement": "survivor count", "setting": "dose: 200.0 mg/kg/injection, schedule: Q01DX009 (ip), vehicle: water", "result": "0 of 6"}]}
{"smiles": "CCCCCCCCCCCCCCCC[N+](C)(C)CC#N", "values": [{"measurement": "survivor count", "setting": "dose: 50.0 mg/kg/injection, schedule: Q01DX009 (ip), vehicle: saline", "result": "1 of 6"}]}
{"smiles": "Cc1cccc2cc3ccccc3c[n+]12", "values": [{"measurement": "survivor count", "setting": "dose: 50.0 mg/kg/injection, schedule: Q01DX005 (ip), vehicle: saline + Tween-80 + alcohol", "result": "4 of 6"}, {"measurement": "survivor count", "setting": "[3]", "result": "0 of 5"}, {"measurement": "survivor count", "setting": "dose: 100.0 mg/kg/injection, schedule: Q01DX005 (ip), vehicle: saline + Tween-80 + alcohol", "result": "0 of 6"}, {"measurement": "survivor count", "setting": "dose: 100.0 mg/kg/injection, schedule: Q01DX005 (ip), vehicle: saline with Tween-80", "result": "0 of 5"}, {"measurement": "survivor count", "setting": "dose: 200.0 mg/kg/injection, schedule: Q01DX005 (ip), vehicle: saline + Tween-80 + alcohol", "result": "0 of 6"}, {"measurement": "survivor count", "setting": "dose: 200.0 mg/kg/injection, schedule: Q01DX005 (ip), vehicle: saline with Tween-80", "result": "0 of 5"}]}
{"smiles": "CN(C)CCC(=O)C(=Cc1c(Cl)cccc1Cl)C(=O)CCN(C)C", "values": [{"measurement": "T/C", "setting": "dose: 3.75 mg/kg/injection, schedule: Q01DX005 (ip), vehicle: saline", "result": "129 % of control"}, {"measurement": "T/C", "setting": "dose: 30.0 mg/kg/injection, schedule: Q01DX005 (ip), vehicle: saline", "result": "127 and 131 % of control"}, {"measurement": "survivor count", "setting": "dose: 60.0 mg/kg/injection, schedule: Q01DX005 (ip), vehicle: saline", "result": "0 of 6 and 1 of 6"}, {"measurement": "survivor count", "setting": "dose: 120.0 mg/kg/injection, schedule: Q01DX005 (ip), vehicle: saline", "result": "0 of 6"}, {"measurement": "survivor count", "setting": "[4]", "result": "0 of 6"}]}
{"smiles": "COc1cc(C2N=C(N)N=C(N)N2c2ccc(S(N)(=O)=O)cc2)cc(OC)c1OC", "note": "(centres undefined)", "values": [{"measurement": "survivor count", "setting": "[1]", "result": "0 of 6"}]}
{"smiles": "NCCCN=c1ccc2c3c1c(O)c1c(O)ccc(=O)c1c3[nH]n2CCNCCO", "values": [{"measurement": "T/C", "setting": "dose: 25.0 mg/kg/injection, schedule: Q01DX001 (ip), vehicle: water, evaluated on day 30", "result": "213 % of control (2×)"}, {"measurement": "T/C", "setting": "dose: 25.0 mg/kg/injection, schedule: Q01DX001 (ip), vehicle: water, evaluated on day 45", "result": "237 (2×), 250 (2×), 305 % of control (2×)"}, {"measurement": "T/C", "setting": "dose: 25.0 mg/kg/injection, schedule: Q01DX001 (ip), vehicle: water, evaluated on day 60", "result": "238 (2×), 270 (2×), 294 % of control (2×)"}, {"measurement": "T/C", "setting": "dose: 37.0 mg/kg/injection, schedule: Q01DX001 (ip), vehicle: water, evaluated on day 30", "result": "227 % of control [9 of 10 alive] (2×)"}, {"measurement": "T/C", "setting": "dose: 37.0 mg/kg/injection, schedule: Q01DX001 (ip), vehicle: water, evaluated on day 45", "result": "263 (2×), 275 (2×), 330 [9 of 10 alive] (2×), 385 % of control (2×)"}, {"measurement": "T/C", "setting": "dose: 37.0 mg/kg/injection, schedule: Q01DX001 (ip), vehicle: water, evaluated on day 60", "result": "235, 245, 265, 284 (2×), 305 (2×), 326 (2×), 366, 385 % of control (2×)"}, {"measurement": "T/C", "setting": "dose: 56.0 mg/kg/injection, schedule: Q01DX001 (ip), vehicle: water, evaluated on day 30", "result": "291 % of control [9 of 10 alive] (2×)"}, {"measurement": "T/C", "setting": "dose: 56.0 mg/kg/injection, schedule: Q01DX001 (ip), vehicle: water, evaluated on day 45", "result": "255 [9 of 10 alive] (2×), 290 (2×), 354 (2×), 403 % of control (2×)"}, {"measurement": "T/C", "setting": "dose: 56.0 mg/kg/injection, schedule: Q01DX001 (ip), vehicle: water, evaluated on day 60", "result": "245, 264, 285 [9 of 10 alive], 346 (2×), 347 (2×), 367 (2×), 435, 588 % of control (2×)"}, {"measurement": "survivor count", "setting": "dose: 75.0 mg/kg/injection, schedule: Q04DX002 (ip), vehicle: water", "result": "3 of 8"}, {"measurement": "T/C", "setting": "dose: 85.0 mg/kg/injection, schedule: Q01DX001 (ip), vehicle: water, evaluated on day 30", "result": "194 % of control [7 of 10 alive] (2×)"}, {"measurement": "T/C", "setting": "dose: 85.0 mg/kg/injection, schedule: Q01DX001 (ip), vehicle: water, evaluated on day 45", "result": "264 [7 of 10 alive] (2×), 412 (2×), 450 (2×), 468 % of control (2×)"}, {"measurement": "T/C", "setting": "dose: 85.0 mg/kg/injection, schedule: Q01DX001 (ip), vehicle: water, evaluated on day 60", "result": "333, 489 (2×), 509, 588 (2×), 594, 612, 625 (2×), 631 % of control (2×)"}, {"measurement": "T/C", "setting": "dose: 100.0 mg/kg/injection, schedule: Q04DX002 (ip), vehicle: saline", "result": "131 % of control [4 of 5 alive]"}, {"measurement": "survivor count", "setting": "dose: 100.0 mg/kg/injection, schedule: Q04DX002 (ip), vehicle: water", "result": "2 of 5"}, {"measurement": "T/C", "setting": "[5]", "result": "588 % of control [8 of 10 alive] (2×)"}, {"measurement": "survivor count", "setting": "[5]", "result": "2 of 10, 4 of 10 (2×), 5 of 10, 6 of 10"}]}
{"smiles": "C1CNP2(=NP(N3CC3)(N3CC3)=NP(N3CC3)(N3CC3)=N2)N1", "values": [{"measurement": "T/C", "setting": "dose: 50.0 mg/kg/injection, schedule: Q01DX001 (ip), vehicle: saline with Tween-80", "result": "135 % of control"}, {"measurement": "survivor count", "setting": "dose: 200.0 mg/kg/injection, schedule: Q01DX001 (ip), vehicle: saline with Tween-80", "result": "6 of 6"}, {"measurement": "survivor count", "setting": "dose: 400.0 mg/kg/injection, schedule: Q01DX001 (ip), vehicle: saline with Tween-80", "result": "6 of 6"}]}
{"smiles": "COC(=O)Nc1cnc(C=O)c(C)c1-c1ccc(OC)c(OC)c1OCc1ccccc1", "values": [{"measurement": "T/C", "setting": "dose: 200.0 mg/kg/injection, schedule: Q01DX009 (ip), vehicle: other", "result": "125 % of control"}]}
